Measurements published in publication PMC5770445.

Biological target: His-CSK29544_02616 (His×6-tagged CSK29544_02616 product, Labp) (C. sakazakii)
Assay: affinity purification with mass spectrometry; ligand fishing: 1 mg His-CSK29544_02616 as bait mixed with cell lysate of ΔCSK29544_02616, Ni-NTA resin, 4 °C, 1 h; washed with 20 mM Tris-Cl, 300 mM NaCl, 10 mM imidazole, pH 8.0; eluted with 250 mM imidazole; band cut from SDS-PAGE gel, LC-MS/MS; only the target purified

B1: LpxA (UDP-GlcNAc acyltransferase), endogenous (enzyme, UniProt A7MI18 1-262)
chain: MIDKTAFIHPTAIVEEGAVIGANAHIGPFCIVGPDVKIGEGTVLKSHVVVNGHTTIGRDNEIYQFASIGEVNQDLKYAGEPTRVEIGDRNRIRESVTIHRGTAQGGGLTKVGSDNLLMINAHVAHDCTVGNRCILANNATLAGHVSVDDFAIIGGMTAVHQFCIIGAHVMVGGCSGVAQDVPPYVIAQGNHATPFGVNIEGLKRRGFSKEALHAIRNAYKLLYRSGKTLDEVKPEIAEIAAKHPEVQPFYDFFARSTRGLIR
binding: binds

Results are given in words; binding and its absence hold for the method and conditions named. In cells and extracts the contact can be indirect. A yes stands for co-enrichment or nearness to the bait. Other partners may have been found.
